Source: ChEMBL document CHEMBL3988442, “University of Dundee, Small-Polar-MMV Screening Library” (2021).

Protein sequences, listed by entry. Tags and fused reporters are not part of them.
UniProt P9WFT3, whole entry: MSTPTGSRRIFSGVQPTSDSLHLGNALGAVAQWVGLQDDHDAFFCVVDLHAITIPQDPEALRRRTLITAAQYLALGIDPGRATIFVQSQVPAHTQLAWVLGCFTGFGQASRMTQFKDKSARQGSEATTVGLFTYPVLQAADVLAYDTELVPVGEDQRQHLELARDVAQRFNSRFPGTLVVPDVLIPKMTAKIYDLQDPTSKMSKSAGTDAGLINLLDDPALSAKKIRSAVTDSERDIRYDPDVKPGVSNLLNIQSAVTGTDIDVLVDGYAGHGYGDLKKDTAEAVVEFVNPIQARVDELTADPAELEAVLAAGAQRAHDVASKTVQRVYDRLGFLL

A: 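Enzyme assay of tryptophanyl-tRNA synthetase; the read-out is not stated. Target: Tryptophan-tRNA ligase, Mycobacterium tuberculosis (UniProt P9WFT3). Tested at 10 µM. Higher most likely means stronger inhibition; the record gives no direction and few retests gave an IC50. About 65,000 compounds were tested under these conditions; 0.098% (about 64) showed 50% or more at least once.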
B: 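Cell assay of Leishmania donovani living inside macrophages; the read-out is not stated. Compounds at 30 µM. The record gives no direction; compounds that gave an IC50 in retests scored well above the rest, so higher reads as stronger inhibition. Size under these conditions: about 69,000 compounds, about 1,000 of them at 50% or above in at least one test.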

Results are given as percent effect. The record does not define 0% and 100%; most values in the screen are far below 50% and negative numbers occur (in some assays of this library far below -100). Compounds were drawn at random from those tested, without regard to their results. Two or more numbers in one place are separate tests of the same structure; such repeats can differ widely.

- O=C(NC1CCC(N2C(=O)CCC2=O)CC1)c1c[nH]c2ccccc12 (stereo unspecified) | A: 5.502%; B: -7.275%
- Cc1cnc2c(c1NCc1ccccn1)c(=O)n(C)c(=O)n2C | A: 0.8497%; B: 5.948% & -1.84%
- CCCc1nnnn1Cc1cn2c(C)cccc2n1 | A: 0.602%; B: 19.02%
- CCc1nc(C2CCCN2C(=O)c2ccc3c(c2)nc(C)n3C)no1 (stereo unspecified) | A: -0.7601%; B: 9.486%
- Cc1ncnc2c1CCN(CC1CCOC1)CC2.O=C(O)C(F)(F)F (stereo unspecified) | B: 23.98%
- O=C(Nc1ccccc1F)C1=NOC2(CCNCC2)C1 | A: -1.623%
- CCN(CC)C(=O)c1cc(Br)cc(S(=O)(=O)N2CCOCC2)c1F | A: 1.342%; B: 1.606%
- COC(=O)C(NC(=O)C(C)C)c1cc(F)ccc1F (stereo unspecified) | A: 0.5596%; B: -23.01%
- CCn1cc2c(n1)CN(Cc1ccc(C)o1)CC2COCC1CC1.O=C(O)C(F)(F)F (stereo unspecified) | B: 32.47%
- COC(=O)[C@@H](Nc1nc(C2CCCC2)nc2c1cnn2C)[C@@H](C)O | A: 1.079%; B: -9.028%
- Cc1occc1C(=O)N1CCc2c(COCC3CC3)cncc2C1 | A: -2.703%; B: 20.74%
- [H][C@@]12OCCC[C@]1([H])N(S(C)(=O)=O)C[C@H]2NC(=O)c1ccno1 | B: 32.41%
- CCOc1cccc(COC(=O)c2scnc2C)n1 | A: -6.605%; B: -12.87%
- Fc1cnc(N2CCn3c(CN4CCCC4)nnc3C2)nc1 | A: -8%
- CC(=O)NCCCSC1CCN(c2ccccc2F)C1=O (stereo unspecified) | A: 2.119%; B: 22.5%
- CCC(=O)NC1CCCN(Cn2nc(C(C)(C)C)ccc2=O)C1 (stereo unspecified) | A: -3.534%; B: 5.689%
- CCc1nc(CN2CCC(C(=O)N(C)C)CC2)cs1 | A: -1.815%; B: 13.27%
- O=C1CC2(CCN(C(=O)Cc3cc4c(cc3Cl)OCCO4)C2)C(=O)N1 (stereo unspecified) | A: -1.005%; B: -9.103%
- O=C1COc2cc(C(=O)NCc3ccc(Cl)s3)ccc2N1 | A: 0.9288%; B: 14.64%
- Cc1nc(Nc2nnc(C)s2)cc(C2CCCN2)n1 (stereo unspecified) | A: -2.764%
- CCC1CN(C(=O)c2cncc(C)c2)CCC(=O)N1Cc1ccccc1 (stereo unspecified) | A: -2.155%; B: 24.14%
- Cc1cnn(CC2CCCN2CC(=O)NC2CCN(C3CC3)CC2)c1 (stereo unspecified) | A: -0.1278%; B: 21.77%
- Cc1cccc2c1NC(c1cnc(C3CCC3)s1)NC2=O (stereo unspecified) | A: -0.4454%; B: -13.95%
- Cn1ccc(NC(=O)Cc2cccc(F)c2)n1 | A: 5.816%; B: 0.6311%
- CC(C)SCc1cccc(NC(=O)NC(C)c2nc[nH]n2)c1 (stereo unspecified) | A: 7.947%; B: 40.77%